Results are given in words; binding and its absence hold for the method and conditions named. In cells and extracts the contact can be indirect. These calls come from enrichment with a bait or labelling near it, and not all partners need be listed. For part of these data: Where a sequence is shown, tags or fusion partners need not be part of it.
T1: Cdc10-mCherry (C. neoformans) (UniProt J9VMT9)
T1 sequence: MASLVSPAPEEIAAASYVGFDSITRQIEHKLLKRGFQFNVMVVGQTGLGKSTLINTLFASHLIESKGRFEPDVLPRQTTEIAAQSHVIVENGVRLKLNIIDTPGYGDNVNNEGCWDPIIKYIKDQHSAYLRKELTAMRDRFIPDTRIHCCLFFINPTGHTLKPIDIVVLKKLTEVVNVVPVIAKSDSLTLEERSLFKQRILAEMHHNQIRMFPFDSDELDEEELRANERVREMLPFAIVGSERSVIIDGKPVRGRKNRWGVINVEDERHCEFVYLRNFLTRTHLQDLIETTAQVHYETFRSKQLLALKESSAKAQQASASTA

T2: Cdc3-mCherry (C. neoformans) (UniProt J9VUF2)
T2 sequence: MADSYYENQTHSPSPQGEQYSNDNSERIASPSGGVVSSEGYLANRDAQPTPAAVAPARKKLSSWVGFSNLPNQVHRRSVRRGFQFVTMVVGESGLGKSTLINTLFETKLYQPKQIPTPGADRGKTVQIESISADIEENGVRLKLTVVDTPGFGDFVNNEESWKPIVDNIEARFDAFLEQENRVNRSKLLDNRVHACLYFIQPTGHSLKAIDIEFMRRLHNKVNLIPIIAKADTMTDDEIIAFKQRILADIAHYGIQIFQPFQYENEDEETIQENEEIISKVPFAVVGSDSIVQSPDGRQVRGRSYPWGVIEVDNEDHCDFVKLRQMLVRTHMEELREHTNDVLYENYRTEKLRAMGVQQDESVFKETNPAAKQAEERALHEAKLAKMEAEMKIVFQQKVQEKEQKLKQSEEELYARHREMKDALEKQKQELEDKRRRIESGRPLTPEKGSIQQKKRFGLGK


Experiments:
[1] = target: T1, Cdc10-mCherry (C. neoformans); assay: affinity purification with mass spectrom
[2] = target: T2, Cdc3-mCherry (C. neoformans); assay: affinity purification with mass spectrom

| binding [1] | binding [2] | Binder |
| --- | --- | --- |
| binds | – | Uracil phosphoribosyl transferase (protein, UniProt J9VUW0 1-213) MSKINISNHPLILSKLTQLRLHDLPPKDFREGIRIIGSMLIYEAARDLPLRDVPDLRSPIAPFTGQTIPLRIGLSPILRAGIGLTDAALESFPEATVLHLGLFRDKVSLQAIEYYSKLPSQVTADLVFLLDPLIATGGTAIAALNMLTEWGLDQSQIKIVSVLGSKLGVKNVQDEFPNVEIYIAAIDDELTDKGYISPGLGDAGDKLFNTFAH |
| – | binds | Acylpyruvate hydrolase (protein, UniProt J9VTE8 1-228) MSNFIKAGKKIVAIGRNYADHAKELGNAIPKEPFFFLKPTSSYLVPGAGPVEIPRGVVMHHEVELGVVIGKNGRNISPSTAFDHVAGYSLAVDMTARNVQDKVKAKGLPWSAAKGFDTFCPIGPFIPKHFIADPTKVGLHFSVNGTVKQSGLTSDMIFDIPQLIAFVSGIMKLEEGDLVLTGTPSGVGQIKGGETFEAKLTYPGLDGKILSKYEIECVERQGGYEFMP |
| – | binds | ADF-H domain-containing protein (protein, UniProt J9VKE8 1-147) MADVTDSKIAEAYEQIRSNGSEESWMLLDYESEKSNKLVLTATGKGDLSELSAQLKPENASFAYAKVRYENDEHSFREKFILVIWIGENVKVMRRARVSVHAADVKKVLRTYSIEISASTPADLEQDDVVTRLRRAGGANYDRSKFD |
| – | binds | 1,4-alpha-glucan-branching enzyme (protein, UniProt J9VGQ7 1-682) MTAVSLSDGTGVLKTDPWLEPFSGALRERYAAYQKQRTIIEEHEGGLAEFSKGYKSMGFQVDKNGGVRYREWAPNATEARLIGEFNNWSHTANPMTKSPFGVWECYVPPVSPGVCPIPHDSMVKISMTIPGGESIDRIPTWITRVTQDLNISPVYDGRFWNPPKDQQYRFKHGHSTRPVEGLKIYEAHVGISSPNMRVTTYKEFEVDVLPKIKQLGYNCIQMMAIMEHAYYASFGYQVTNFFAASSRFGTPEELKSLVDKAHELGLTVLLDVVHSHASKNILDGINMYDGSDHLYFHEGGRGRHDQWDSRLFNYGHHEVLRFLLSNLRFWMDIYMFDGFRFDGVTSMMYKHHGIGSGFSGGYHEYFGDSVDLEAMVYLMLANAMLHENYPHVVTIAEDVSGMPTLCRPVAEGGVGFDYRLSMAIPDMWIKLLKEYTDDQWEMGHIVHNLTNRRHLEKSVAYAESHDQALVGDKTLAFWLMDKEMYDFMSDLSPLTPIIDRGLALHKMIRFIVHTLGGEAYLNFEGNEFGHPEWMDFPREGNGNSFAHARRQFNLVDDKLLRYKYLYEFDVAMNWLEDKYKWLNSPQAYVSLKHEGDKVIVFERAGLLFIFNFHPTQSFTDYRVGVDTAGEYKVILTSDETRFGGHNRIDMGGRYFTTPMEWNGRKNWLQVYSPSRTVLVLGL |
| – | binds | Adaptin ear-binding coat-associated protein 2 (protein, UniProt J9VEV2 1-202) MESLTDEIEAVLFVAREVMVYQIPPRTTTAGYKAAEWNVESFLWKGRMRVLDVGSRSEIRLEDSNTGELFAQVNYVSPWNQVEPVLDSSRYFVLRVEGEGGKRAYIGMGFAERGESFDFQVALQSVTKRSQNISSSSNPSEQPQPTAPPKDYSLKDGQTFTIKIPGREGKKPSPSQTPSSGGGGGGGGLFSLPPPPPPGRRG |
| – | binds | FK506-binding protein 1 [FRR1] (protein, UniProt O94746 1-108) MGVTVENISAGDGKTFPQPGDNVTIHYVGTLLDGSKFDSSRDRGTPFVCRIGQGQVIRGWDEGVPQLSVGQKANLICTPDYAYGARGFPPVIPPNSTLKFEVELLKVN |
| – | binds | Vacuolar protein sorting-associated protein vps17 (protein, UniProt J9VJ63 1-818) MDPLAHTDDINAGWSSPTTNLRFDAASAAEDTAPTSATSNPYAERNVSASENANGFGAHNSTGLGSGIVGGDIGAGYREPVVFGAPGMGLVSPPPESAFQQSQQETPGGAVQQERKAPRVYLRVRIGTLERNKKDLLIRFDASTNLSTYKNGMYRNMQRSYVEFQRFAEQLSLVCPQTIIPALPLPSTSASTDEEDDRLVRIALQRWFSRVCEDPVLMRQDEVRSFIESNFGYSPIPPPTAKRSQTNVLSALTKVVRRGPLDEDDELSSAKIALDKLEERYGHAATCVSHVGKARRQLANSNAELGAKMVSLSTVESEPSLAGAERKLGRAWEQVSGMINAQAANENVILSDTLGYQALNARAAKDTLVQRTAVLEDSQSASKAAITKRRNLERLKASSNINPAKVDDAISEMQEADSLEQSLSHRVTAISQNLHHSLRAHSRHAHEDIAISLMEAARMSAIYHKQALRELESLRADIGKVAPGAAPLDGLAISGKSPAASRVQPTQPSLVSSPPPPQSQYASPYAAQPPLTAQVGRQPPMARTSQSQVQPQPQAQPQVQPPIQPQAQTTFHPQPQAYPRNPYATQPPPSQSAAPPFPPQSQSQSSSYPIQPPGSSSQSPYGLAPNAAGPSTSSQFPPRIPTSPPTTGFPVADGTQSMFLPSGGNGGMQRSHSAAPDAPGFAGAPRMVDPLAGYPRGPAAPGMQGMQGMGQSMFVPSQSQSQASFRTHPAQPLTPNAGPGPASQAYQPQFQPPQPPYQPAQLGQGYPVQNVSGYPGQQQPQQISPFPGPAGVQRAATIATGRRKLDERKAAKMLAGGF |
| binds | binds | Amino oxidase (protein, UniProt J9VTQ9 1-470) MRISLIRNMSNAYDSIILGAGWAGSVAAKELTSKGHRVLVLEARDRVGGRARTWTGGGAKIDIGCSWIHGYKEGNPARNIAKSLGVEARLPAAAEGVIYGPNGPLSAEEADALRASLGTAVASSKLPHPSPPPTTSLASALFSPNSALFSTASDQSLAKALARSLEVPLGLKLEKASLKWAGWETTTSYAGSDAAPEGGYQSLVTKVLESSKAEVKLNSPVTSIKETSSGVEVTTRSGETYSAASVLSTIPLGVLKSLPEDFFTPALPAHLRETIAGTHVGVLEKLLVQYPTAWWPNAEKVGSYTFLPTGPEPSASSTLEQVFEGSTLITANFAAPTLPGPTPTLLTYLSETPAKILLQHPTEKVAEAFHSFLVKRFSPSSPPPAPSASALTTWLTDPLSRGATTTPSIISTGERSPMDFKELSRPVWGGKLGFAGEHTEMENRGSVAGAVISGFREADRIDKWLAVRKE |
| – | binds | 2-hydroxyacid dehydrogenase (protein, UniProt J9VX79 1-335) MSKPQVLIAANPKTGIVWSKEEQSSKLGAVAEVLELTSASRSEFFQDLASNGKYANIVAIYRHNDSVSAIGLFDEELINKLPTSVKYICHNGAGYDQIDIAACTARGIQVSHTPQAVDDATATVGAFLAISAMRQFWRAEVNVRSGKWKAGLSPARDPEGKTLGIIGMGGIGSALARRLLAFDMKVIYYNRRPIQPPPNFPCTYVSSIEELLQQADVVSLNLPLNENTRGSFGRKAFSLMKDGSVLINTARGAVIDEEAFIEALESGKLYSAGIDVYPDEPNVNPKLLAMDNITLLPHMGTETRDSQKKMELLVLDNMVSALTGKGLLNQVPEQK |
| – | binds | B30.2/SPRY domain-containing protein (protein, UniProt J9VX51 1-490) MPTESTPSELPLSTPHTPAGVIKCSICGIGNLSQPLSIPVSDYFGGSTVEFGERVCGRCAMARGHGEADIQSQSQNENQSRDRERGWEKESEMRERGRGSVKQENGRTLDDVLEENETAERRGVVCDLKTPTFSQSLPSQLPQPWTTTKPASSSPGNTRGLIESPKPEAASRSKEKMDQPPNPLLDITKMRVRSIDRGPLYPGSVFKGTQTSGRSAYDVEVKFLDVDFADSTLSGYLSISHLTDSHPHLTTFFTGEIIGPKYGFITGPRYAATEHDDLRHWGRFEQFRRPSTRADLVGEELFLRDPQPDRSRGETKGKERDFVFLRIKEQFLVPDHKVKDISGASFAGFYYIMVDMAPTVTVPVSQPATPLSPTFKSPFVPSSPANSRRTSGTGMPTLGLGMGMGLGATIGAGVGGGMGMAGEQISGINRTRPARPSGTRKESSGRMREREVRGEPTIRGYYFHSLNQEPFQELFLSHVPQKSKCTFEYR |
| – | binds | ATP-dependent (S)-NAD(P)H-hydrate dehydratase (protein, UniProt J9VIT7 1-346) MASKQHAHILSLARSMIPPLHPKLHKGQAGRIGVLGGSGDYSGAPYFSSMGAMRFGADLAHVICEPSAGAVIKTYSPDLIVHTILDPQKSREDIRSALKGVMSRLHVLIIGPGLGRDDHMQSCAKIAFELAKDMEQMGVVVDADGLWLVQNEPKVVMDWPGVPRIILTPNVMEFKRLCDTMKINASGPHTSLCPQLATALGNATIIQKGPSDIISNGLKIPFALLSDESEEEQNYLEVKVEGGLKRVGGQGDILSGSTGVLLAWGSEWVRGTYEHVGHPPPQDKAIKENIPVLAAYGASTFNRTVSKRGFQKKGRSMVTGDLVDMVGEVYEEVFGNPGEVEGRGKL |
